Results are given in words; binding and its absence hold for the method and conditions named. Binding seen in cells or lysates may run through a third protein. Some entries that bind do so weakly or less than the wild type. Sequences can lack the tags named with a protein. One block for each molecule: values may come before it.
Key:
[1] = target: T1, Solute carrier family 26 member 9 (SLC26A9), Flag-tagged (human) (UniProt Q7LBE3); assay: co-IP; CRC cell lysates (1000 μg) with protease/phosphatase inhibitor mixture, overnight with Flag antibody, anti-β-catenin IgG or rabbit IgG; protein A/G 4 °C 4 h; washed three times; western blot
T1 sequence: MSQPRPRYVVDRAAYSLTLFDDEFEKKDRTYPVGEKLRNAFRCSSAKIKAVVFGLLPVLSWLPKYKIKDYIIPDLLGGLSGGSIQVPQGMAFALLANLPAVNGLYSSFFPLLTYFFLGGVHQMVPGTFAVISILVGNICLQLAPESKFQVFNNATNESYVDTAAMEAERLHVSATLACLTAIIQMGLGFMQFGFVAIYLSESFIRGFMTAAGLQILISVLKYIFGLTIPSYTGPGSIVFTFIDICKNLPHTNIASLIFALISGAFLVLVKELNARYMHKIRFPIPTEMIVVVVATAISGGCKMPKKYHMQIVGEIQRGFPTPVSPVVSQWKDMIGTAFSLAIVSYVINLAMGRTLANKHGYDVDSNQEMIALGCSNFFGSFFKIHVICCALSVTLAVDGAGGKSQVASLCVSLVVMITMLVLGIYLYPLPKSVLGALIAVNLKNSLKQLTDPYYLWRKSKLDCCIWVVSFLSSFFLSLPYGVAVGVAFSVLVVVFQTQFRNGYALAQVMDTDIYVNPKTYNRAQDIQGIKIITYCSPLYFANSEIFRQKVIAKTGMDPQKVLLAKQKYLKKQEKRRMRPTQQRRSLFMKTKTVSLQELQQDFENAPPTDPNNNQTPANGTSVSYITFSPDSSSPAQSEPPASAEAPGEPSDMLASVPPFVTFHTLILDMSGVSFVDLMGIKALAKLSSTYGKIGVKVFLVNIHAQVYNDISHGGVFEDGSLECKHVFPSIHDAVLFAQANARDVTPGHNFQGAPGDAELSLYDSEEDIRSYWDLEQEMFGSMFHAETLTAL

Sequences of proteins named here, by UniProt entry; tags and fusion partners are left off.
UniProt P35222: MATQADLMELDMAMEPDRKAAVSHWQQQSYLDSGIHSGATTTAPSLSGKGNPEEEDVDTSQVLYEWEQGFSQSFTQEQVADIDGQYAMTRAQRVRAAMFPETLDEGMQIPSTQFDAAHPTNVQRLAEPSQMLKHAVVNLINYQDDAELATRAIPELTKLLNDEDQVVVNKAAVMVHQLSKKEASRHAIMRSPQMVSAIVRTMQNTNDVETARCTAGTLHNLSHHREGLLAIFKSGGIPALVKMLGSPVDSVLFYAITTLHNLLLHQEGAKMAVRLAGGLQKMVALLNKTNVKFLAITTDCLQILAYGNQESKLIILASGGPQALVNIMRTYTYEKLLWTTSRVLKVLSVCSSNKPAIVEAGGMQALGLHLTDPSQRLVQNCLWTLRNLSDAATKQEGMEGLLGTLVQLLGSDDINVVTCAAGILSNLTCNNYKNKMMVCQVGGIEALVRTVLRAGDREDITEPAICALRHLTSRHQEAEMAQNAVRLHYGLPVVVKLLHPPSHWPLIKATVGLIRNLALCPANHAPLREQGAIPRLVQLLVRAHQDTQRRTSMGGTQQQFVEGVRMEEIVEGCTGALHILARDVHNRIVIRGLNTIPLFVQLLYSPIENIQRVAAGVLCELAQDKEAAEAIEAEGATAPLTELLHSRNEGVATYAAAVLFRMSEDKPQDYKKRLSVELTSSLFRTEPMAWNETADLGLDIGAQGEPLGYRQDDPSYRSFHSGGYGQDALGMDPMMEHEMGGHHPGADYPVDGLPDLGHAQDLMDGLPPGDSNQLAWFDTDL

[2] = target: β-catenin (endogenous, CRC cells) (human (endogenous in CRC cells)) (UniProt P35222); assay: as above

binding [1]: binds
Molecule: β-catenin (endogenous, CRC cells) (from UniProt P35222 1-781)

binding [2]: binds
B1: Solute carrier family 26 member 9 (SLC26A9), Flag-tagged (protein, UniProt Q7LBE3 1-791)
chain: T1 sequence
